Measured values from article PMC6114082, “Synthesis of aminophenylhydroxamate and aminobenzylhydroxamate derivatives and in vitro screening for antiparasitic and histone deacetylase inhibitory activity” (International Journal for Parasitology: Drugs and Drug …, 2018).

System: T. gondii deacetylase activity (total protein extract)
Experiment: Deacetylase activity of total protein extract of T. gondii tachyzoites
Type: biochemical, Toxoplasma gondii
Settings: 0.125 μM
Protocol: The HDACi effect against HeLa nuclear extracts and recombinant proteins were measured using a fluorometric HDAC assay kit (Active Motif, Belgium) according to the manufacturer's instructions. Briefly, 30 μL of HeLa nuclear extract (Active Motif, Belgium) or various HDAC recombinant proteins (Active Motif, Belgium) was mixed with 5 μL of a 10 × compound and 10 μL of assay buffer. A negative control containing trichostatin A at a final concentration of 2 μM was analyzed for each independent experiment. A fluorogenic substrate (10 μL) was added, and the reaction was allowed to proceed for 30 min at room temperature and then stopped by the addition of a developer containing trichostatin A. The fluorescence was monitored after 30 min at excitation and emission wavelengths of 360 and 460 nm, respectively.
HDAC activity was determined from total protein extracted from T. gondii. […]

O=C(CCCCCCC(=O)Nc1ccccc1)NO [SAHA, vorinostat, reference compound]
inhibition of T. gondii deacetylase activity: 22%
